Results: PMC4767476
Results are given in words; binding and its absence hold for the method and conditions named. In cells and extracts the contact can be indirect. Some results given as binding are weak or reduced against the parent protein; the word gives no strength.

The chains behind the UniProt entries cited, without tags or fusion partners. Residues count along the entry.
UniProt P08069, residues 31-1367: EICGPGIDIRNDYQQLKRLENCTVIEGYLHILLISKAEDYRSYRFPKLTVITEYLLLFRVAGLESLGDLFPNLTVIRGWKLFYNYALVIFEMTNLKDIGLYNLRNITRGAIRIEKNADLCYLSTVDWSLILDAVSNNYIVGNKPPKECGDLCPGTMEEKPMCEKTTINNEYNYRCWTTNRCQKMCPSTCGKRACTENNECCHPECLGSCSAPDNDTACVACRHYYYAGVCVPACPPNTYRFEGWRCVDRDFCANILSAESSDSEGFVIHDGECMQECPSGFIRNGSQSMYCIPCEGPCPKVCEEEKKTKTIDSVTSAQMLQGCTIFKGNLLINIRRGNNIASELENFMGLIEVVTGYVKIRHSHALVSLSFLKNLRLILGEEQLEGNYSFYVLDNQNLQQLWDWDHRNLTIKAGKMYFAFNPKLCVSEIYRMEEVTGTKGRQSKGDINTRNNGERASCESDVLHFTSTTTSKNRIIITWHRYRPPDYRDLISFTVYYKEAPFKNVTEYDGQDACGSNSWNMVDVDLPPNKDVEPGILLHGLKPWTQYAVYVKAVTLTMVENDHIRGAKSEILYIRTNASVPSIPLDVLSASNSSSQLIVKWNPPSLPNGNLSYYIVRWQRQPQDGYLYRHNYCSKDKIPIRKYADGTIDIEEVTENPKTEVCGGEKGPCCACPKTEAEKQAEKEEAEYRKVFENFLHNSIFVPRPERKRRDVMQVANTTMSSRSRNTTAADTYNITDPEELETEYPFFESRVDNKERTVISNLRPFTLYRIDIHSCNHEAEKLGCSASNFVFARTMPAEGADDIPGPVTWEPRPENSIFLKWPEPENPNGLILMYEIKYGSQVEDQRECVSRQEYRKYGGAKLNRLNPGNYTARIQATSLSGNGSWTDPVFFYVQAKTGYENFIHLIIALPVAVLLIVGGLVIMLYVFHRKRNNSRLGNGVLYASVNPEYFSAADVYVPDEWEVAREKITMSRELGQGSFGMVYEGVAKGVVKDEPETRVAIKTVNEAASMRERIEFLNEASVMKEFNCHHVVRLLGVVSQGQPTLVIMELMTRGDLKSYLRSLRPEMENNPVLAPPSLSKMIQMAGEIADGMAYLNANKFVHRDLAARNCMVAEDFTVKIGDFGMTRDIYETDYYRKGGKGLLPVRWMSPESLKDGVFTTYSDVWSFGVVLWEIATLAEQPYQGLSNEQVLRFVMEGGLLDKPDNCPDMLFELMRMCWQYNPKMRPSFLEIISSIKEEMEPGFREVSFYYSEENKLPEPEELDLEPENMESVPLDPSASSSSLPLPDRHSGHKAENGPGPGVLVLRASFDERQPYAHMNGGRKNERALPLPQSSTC
UniProt Q86TM6: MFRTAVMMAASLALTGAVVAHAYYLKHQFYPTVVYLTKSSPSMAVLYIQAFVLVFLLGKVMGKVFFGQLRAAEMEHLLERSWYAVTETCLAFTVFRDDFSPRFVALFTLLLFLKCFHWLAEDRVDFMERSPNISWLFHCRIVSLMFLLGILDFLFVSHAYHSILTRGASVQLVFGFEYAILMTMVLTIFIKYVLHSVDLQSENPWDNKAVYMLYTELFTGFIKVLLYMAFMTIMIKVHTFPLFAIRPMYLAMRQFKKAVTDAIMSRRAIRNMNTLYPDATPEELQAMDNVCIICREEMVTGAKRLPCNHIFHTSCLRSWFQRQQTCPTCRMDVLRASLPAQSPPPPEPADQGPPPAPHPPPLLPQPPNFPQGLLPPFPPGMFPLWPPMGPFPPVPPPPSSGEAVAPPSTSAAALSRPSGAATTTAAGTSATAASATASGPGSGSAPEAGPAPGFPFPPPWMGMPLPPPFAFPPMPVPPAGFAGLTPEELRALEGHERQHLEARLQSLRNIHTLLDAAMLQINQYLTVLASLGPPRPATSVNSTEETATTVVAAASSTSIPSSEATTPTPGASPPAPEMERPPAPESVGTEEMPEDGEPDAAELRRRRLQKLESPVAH

Target: type 1 IGF receptor (IGF-1R) (human (endogenous in MCF-7)) (UniProt P08069)
Experiment: co-IP; endogenous proteins in MCF-7 cells pretreated with MG132 (10 uM) for 6 h; IP with HRD1 or IGF-1R antibodies, then immunoblotting; IgG as negative control; lysis buffer 50 mM Tris pH 7.4, 150 mM NaCl, 1 mM EDTA, 0.5% NP-40, 10% glycerol

binding: binds
Substance: HRD1 (3-hydroxy-3-methylglutaryl reductase degradation) (from UniProt Q86TM6 1-617) (enzyme)
